Reference: US20100056441A1, “Method for Inhibiting Angiogenesis” (priority 2006, published 2010)
Not every detail of the peptide structures is certain; ends, links or a residue may be inferred. Non-standard residues stand in square brackets, D forms with d. Residues, ends and D or L forms follow the SMILES beside them.

Tested on: survivin protein
Assay: Survivin immunostaining and Western blot of liver tumors
Format: in vivo, mouse
Settings: daily IP 5 mg/Kg, DEN/PB tumors

Row | SMILES | survivin immunostaining in liver tumors / HCC regions | decrease in survivin protein levels in hepatic tumors (Western blot) [%]
1 | CC(C)C[C@H](NC(=O)[C@H](C)NC(=O)[C@H](CS)NC(=O)[C@H](CO)NC(=O)[C@@H](CCCNC(=N)N)NC(=O)[C@@H](CCCNC(=N)N)NC(=O)[C@@H](CCCNC(=N)N)NC(=O)[C@@H](CCCNC(=N)N)NC(=O)[C@@H](CCCNC(=N)N)NC(=O)[C@@H](CCCNC(=N)N)NC(=O)[C@@H](CCCNC(=N)N)NC(=O)[C@@H](CCCNC(=N)N)NC(=O)[C@H](N)CCCNC(=N)N)C(=O)N[C@@H](C)C(=O)N[C@@H](Cc1ccccc1)C(=O)N[C@H](C(=O)N[C@@H](CC(N)=O)C(=O)O)C(C)C [mutant ARF 37-44 peptide, rrrrrrrrrSCALAFVN, reference compound] (H-[dR][dR][dR][dR][dR][dR][dR][dR][dR]SCALAFVN-OH; N-terminus and C-terminus assumed) | abundant nuclear and cytoplasmic staining | 
2 | CC(C)C[C@H](NC(=O)[C@H](C)NC(=O)[C@H](CS)NC(=O)[C@H](CO)NC(=O)[C@H](C)NC(=O)[C@@H](NC(=O)[C@H](CCCNC(=N)N)NC(=O)[C@@H]1CCCN1C(=O)[C@H](CCCNC(=N)N)NC(=O)[C@H](CCCNC(=N)N)NC(=O)[C@H](CO)NC(=O)[C@H](CCCNC(=N)N)NC(=O)[C@@H](NC(=O)[C@H](Cc1ccccc1)NC(=O)[C@H](CCCCN)NC(=O)[C@@H](CCCNC(=N)N)NC(=O)[C@@H](CCCNC(=N)N)NC(=O)[C@@H](CCCNC(=N)N)NC(=O)[C@@H](CCCNC(=N)N)NC(=O)[C@@H](CCCNC(=N)N)NC(=O)[C@@H](CCCNC(=N)N)NC(=O)[C@@H](CCCNC(=N)N)NC(=O)[C@@H](CCCNC(=N)N)NC(=O)[C@H](N)CCCNC(=N)N)C(C)C)[C@@H](C)O)C(=O)N[C@@H](C)C(=O)N[C@@H](Cc1ccccc1)C(=O)N[C@H](C(=O)N[C@@H](CC(N)=O)C(=O)O)C(C)C [WT ARF 26-44 peptide, rrrrrrrrrKFVRSRRPRTASCALAFVN] (H-[dR][dR][dR][dR][dR][dR][dR][dR][dR]KFVRSRRPRTASCALAFVN-OH; N-terminus and C-terminus assumed) | diminished | 90
